# Reference: the supplement of paper PMC8728848
# This is one part of the list.
# B1: EULS2 M1 (Oryza sativa) (protein)
# chain: MVYCRANPNYAMTARNGAVVLAPANPKDEYQHWIKDMRWSTSIKDEEGYPAFALVNKATGQAIKHSLGQSHPVRLVPYNPEVMDESVLWTESRDVGNGFRCIRMVNNIYLNFDAFHGDKYHGGVRDGTDIVLWKLCEGDNQRWKIQPYYILEQKLISEEDLNSAVDHHHHHH
# Assays:
# [1] = target: Neu5Gc(a2-8)Neu5Gc(a2-6)Gal(b1-4)GlcNAc; assay: glycan array binding signal (z-score within array); higher = stronger binding; conditions: glycan notation: IUPAC condensed, linker removed
# Procedure, shortened: (§1)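 From the Consortium for Functional Glycomics database, 3228 arrays were curated, keeping only those whose protein sequence was available. Binding is given as a within-array Z-score averaged across arrays sharing a protein sequence and across linkers. Negative Z-scores can be read as non-binding.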
# [2] = target: Neu5Gc(b2-6)Gal(b1-4)GlcNAc; assay: as above; conditions: glycan notation: IUPAC condensed, linker removed
# Procedure, shortened: as §1
binder,measurement,setting,value
B1,glycan array binding signal (z-score),[1],-0.158
same,glycan array binding signal (z-score),[2],-0.393
